Binding data for three substances are collected here from publication PMC2676247.

Assay [1] has as its target HTLV-1 Tax (expressed from pBC12-Tax) (HTLV-1) (UniProt P03409). The assay can be described thus: co-IP; Lysates of HEK293 cells transfected with pBC12-Tax (control pcDNA3); immunoprecipitated with anti-Tax (4C5) or anti-Sp1 antibody on rProtein G-agarose, 4°C; lysis buffer 20 mM Tris-Cl pH 7.5, 100 mM NaCl, 1 mM EDTA, 1.5 mM MgCl2, 0.5% Triton-X100; immunoblotted for Tax and Sp1. For orientation: In western blotting, separated proteins are transferred to a membrane and probed.

Assay [2] addresses HTLV-1 Tax (in the HTLV-1-transformed T cell line MT4) (HTLV-1 (endogenous in MT4)) (UniProt P03409). The assay can be described thus: co-IP; Lysates of HTLV-1-transformed MT4 T cells (control Jurkat), 3 x 10^6 cells a sample; immunoprecipitated with anti-Tax or anti-Sp1 antibody as for HEK293; immunoblotted for Tax and Sp1.
Assay [3] concerns the target hexa-histidine-tagged Tax (TaxH6) (HTLV-1) (UniProt P03409). The assay can be described thus: pull-down; ~200 ng Sp1 with ~2 μg TaxH6 held on 30 μl Ni-NTA agarose beads; 20 mM Tris-Cl pH 7.5, 100 mM NaCl, 1 mM EDTA, 0.5% Triton-X100, 100 mM imidazole, 0.5 mg/ml BSA, 2 h at 4°C; Sp1 by immunoblot, Tax by Coomassie; both purified.

No constants are given. Whether binding was seen depends on the method and setting. For part of these data: Binding seen in cells or lysates may run through a third protein. Some binding calls cover weakened binding; strength is not graded here.

As for “Sp1 (endogenous, HEK293 cells) (from UniProt P08047 1-785)”, in assay [1], the binding result is on record as “binds”.
On to “Sp1 (endogenous, MT4 cells) (from UniProt P08047 1-785)”, for which the binding entry in assay [2] is recorded as “binds”.
For “purified Sp1 (Promega) (from UniProt P08047 1-785)”, the binding entry in assay [3] is “binds”.
